Test results taken from patent US7429598B2, “Spirocondensed quinazolinones and their use as phosphodiesterase inhibitors” (Warner-Lambert Company, priority 2002, dated 2008).
Some entries share one result that the patent states for a list of compounds.

The molecules below were run on PDE7 (assay: Inhibition of cyclic nucleotide phosphodiesterases (tritiated cAMP/cGMP, SPA yttrium silicate beads)). Settings: recombinant PDE expressed in Sf21 insect cells; PDE isoform not given; 13 nM tritiated cAMP for PDE7, 30 min.
Type: biochemical

Structure (SMILES)	IC50 [nM]
CC(=O)NCCNCCOc1ccc(Cl)c2c1C1(CCCCC1)NC(=O)N2 [Example 3, 5′-(2-{[2-(acetylamino)ethyl]amino}ethoxy)-8′-chloro-1′H-spiro[cyclohexane-1,4′-quinazolin]-2′(3′H)-one]	< 1000
C[S+]([O-])COc1ccc(Cl)c2c1C1(CCCCC1)NC(=O)N2 (stereo not drawn) [Example 2, 8′-chloro-5′-([methylsulfinyl]methoxy)-1′H-spiro[cyclohexane-1,4′-quinazolin]-2′(3′H)-one]	< 1000
C[S+]([O-])CCCOc1ccc(F)c2c1C1(CCCCC1)NC(=O)N2 (stereo not drawn) [Example 4, 8′-fluoro-5′-[3-(methylsulfinyl)propoxy]-1′H-spiro[cyclohexane-1,4′-quinazolin]-2′(3′H)-one]	< 1000
NC(=O)CNCCOc1ccc(Cl)c2c1C1(CCCCC1)NC(=O)N2 [Example 1, 5′-(2-[(2-amino-2-oxoethyl)amino]ethoxy)-8′-chloro-1′H-spiro[cyclohexane-1,4′-quinazolin]-2′(3′H)-one]	< 1000
C[S+]([O-])COc1ccc(F)c2c1C1(CCCCC1)NC(=O)N2 (stereo not drawn) [Example 5, 8′-fluoro-5′-([methylsulfinyl]methoxy)-1′H-spiro[cyclohexane-1,4′-quinazolin]-2′(3′H)-one]	< 1000
O=C1Nc2c(F)ccc(OC3CN(Cc4cc[nH]n4)C3)c2C2(CCCCC2)N1 [Example 6]	< 1000
